Experimental data as given in PubChem BioAssay AID624291 (National Center for Advancing Translational Sciences (NCATS), 2012).
The campaign covered roughly 350,000 compounds. About 220 (0.063%) were called active. Inconclusive results, whose numbers are uncertain, are shown with a selection of clear calls. The call rests on the fitted dose curve; in most records, active means well fitted activation curve with a large enough effect; inconclusive means small, poorly fitted or top-dose-only effect; inactive means no such curve, though single readings can be large or run the other way. Potencies of inconclusive entries are doubtful fits and often do not repeat.

Test: qHTS for Activators of Integrin-Mediated Alleviation for Muscular Dystrophy; further: nearly all actives have a fitted effect of over 60% in size;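 on activation: 100% = response of the positive control SU9516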
Conditions: alpha7betagal myoblasts, beta-gal FDG fluorescence, 48 h; activation: at 38.3 µM (top of the series)
In short: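 alpha7betagal+/- myoblasts (passage 13, 250/well) treated 48 h at 37C with compounds at 1:260 dilution of DMSO stock. Lysed, then beta-galactosidase activity read as FDG fluorescence (ex 480/em 540) after 30 min, with pre-read for autofluorescence.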
Potency means the concentration at half of the fitted maximal effect.

With O=C(CS(=O)(=O)Cc1ccccc1)NCCc1ccc(F)cc1 as the compound, how does the Potency read?
Its Potency is inconclusive: 10 µM [activator, partial curve, poor fit].

Which Potency does the source give for O=C(O)/C(=C\c1ccc(F)cc1)c1ccc(-c2ccccc2)cc1 here?
The Potency was inconclusive: 11.2 µM [activator, partial curve, poor fit].

Which “activation” value does the source give for Cc1cc(C)n2nc(-c3ccc(Cl)cc3)cc2n1 here?
The value was inactive: 0.939%.

Which Potency does the source give for Cc1cc2c(C)nc(N/N=C/c3ccc([N+](=O)[O-])cc3)nc2o1 here?
The Potency was inconclusive: 12.6 µM [activator, single point].

Which Potency does the source give for Cc1cccc(NC(=O)Nc2ccccn2)c1C here?
The Potency was inconclusive: 5.01 µM [activator, single point].

For COc1ccc(-c2[nH]ncc2CN(C)CC2CCCCO2)cc1F (stereo unspecified), which Potency is on record?
Its Potency is inconclusive: 1.41 µM [activator, partial curve, poor fit].

For COc1ccc(C(=O)NN/C(C)=C/C(=O)C(F)(F)C(F)(F)C(F)(F)F)cc1, which “activation” value is on record?
Its value is inactive: -0.0534%.

With COc1ccc(-c2csc(N(CC3CCCO3)C(=O)c3ccco3)n2)cc1 (stereo unspecified) as the compound, how does the “activation” value read?
The value was inactive: 12.8%.

With O=C(Cc1ccccc1)NCC(=O)OCC(=O)c1ccc([N+](=O)[O-])cc1 as the compound, how does the “activation” value read?
The value was inactive: -29.6%.

With CCCC/C(C)=N/NC(=O)C(=O)NCCc1ccccc1 as the compound, how does the Potency read?
The Potency was inconclusive: 28.2 µM [activator, single point].

With COc1cc(/C=N/NC(=O)CSc2nc3ccccc3n2C)cc(OC)c1OC as the compound, how does the “activation” value read?
The value was inactive: 23.7%.

Which “activation” value does the source give for Cn1cnc(S(=O)(=O)Nc2ccc(Cl)c(C(F)(F)F)c2)c1 here?
The value was inactive: 2.91%.

For Nn1c(Nc2ccccc2)nc2ccccc21, which “activation” value is on record?
Its value is inactive: -17.7%.

For O=C(COc1ccc(C(=O)c2ccccc2)cc1)NC1CCCCC1, which “activation” value is on record?
Its value is inactive: 22.7%.

With COC(=O)c1ccc2nc(NC(=O)C3CC3)sc2c1 as the compound, how does the Potency read?
The Potency was inconclusive: 3.16 µM [activator, single point].

For Cc1ccc(NC(=O)CCN2C(=O)OC(C)(C)C2(C)O)cc1 (stereo unspecified), which Potency is on record?
Its Potency is inconclusive: 8.91 µM [activator, partial curve, poor fit].

With COC(=O)Cc1c(O)ccn(Cc2cccc(C(F)(F)F)c2)c1=O as the compound, how does the Potency read?
The Potency was inconclusive: 28.2 µM [activator, single point].

Which Potency does the source give for CC1CCc2c(sc3ncnc(NCc4cccnc4)c23)C1 (stereo unspecified) here?
Its Potency is inconclusive: 10 µM [activator, partial curve, poor fit].

For COc1ccccc1NC(=O)NC1CCCc2ccccc21 (stereo unspecified), which Potency is on record?
The Potency was inconclusive: 5.01 µM [activator, single point].

Which Potency does the source give for CN(CC(=O)Nc1ccc(Cl)c(Cl)c1)Cc1nnc(-c2ccc(F)cc2)o1 here?
Its Potency is inconclusive: 5.01 µM [activator, single point].

For COc1ccc(N(C(=O)c2ccco2)C(C(=O)NC2CCCC2)c2ccc(N(C)C)cc2)cc1 (stereo unspecified), which “activation” value is on record?
Its value is inactive: 5.46%.

For Cc1cc(NC(=O)CCC(=O)N(c2ccc(F)cc2)C(C(=O)NC2CCCC2)c2cccnc2)no1 (stereo unspecified), which “activation” value is on record?
The value was inactive: -9.04%.

With N#CCCn1cc(C(=O)O)c(-c2ccc3ccccc3c2)n1 as the compound, how does the Potency read?
The Potency was inconclusive: 4.47 µM [activator, single point].

Which Potency does the source give for COc1ccc(N=C2NC(=O)C(CO)(CO)S2)cc1 here?
The Potency was inconclusive: 5.01 µM [activator, single point].

Which Potency does the source give for FC(F)(F)Oc1ccc(NC(=S)NCCCN2CCOCC2)cc1 here?
The Potency was inconclusive: 11.2 µM [activator, single point].

With CCOc1ccccc1C(=O)NCCCCNC(=O)c1ccccc1OCC as the compound, how does the Potency read?
The Potency was inconclusive: 5.01 µM [activator, single point].

Which Potency does the source give for Nc1nccnc1C(=O)OCC(=O)NNC(=O)c1ccccc1 here?
The Potency was inconclusive: 3.55 µM [activator, partial curve, poor fit].

With Cc1ccc(CNc2ccc(N3CCOCC3)cc2)cc1 as the compound, how does the “activation” value read?
The value was inactive: 11%.

With C=CCNC(=O)c1ccc(-n2cccc2)cc1 as the compound, how does the Potency read?
The Potency was inconclusive: 11.2 µM [activator, single point].

With CN(C)/C=C/C(=O)c1ccccc1F as the compound, how does the Potency read?
Its Potency is inconclusive: 2.24 µM [activator, partial curve, poor fit].

For O=[N+]([O-])c1ccc(O)c(C=Nc2cccc3ccccc23)c1, which Potency is on record?
The Potency was inconclusive: 3.98 µM [activator, partial curve, poor fit].

Which “activation” value does the source give for S=C(NCc1ccccc1)Nc1nccs1 here?
Its value is inactive: 11.2%.

With CCC1CCCCN1CCCNC(=O)c1cn(C)c2ccc(S(=O)(=O)N(C)C3CCCCC3)cc2c1=O (stereo unspecified) as the compound, how does the Potency read?
The Potency was inconclusive: 10 µM [activator, partial curve, poor fit].

Which Potency does the source give for O=C(CCC(=O)Nc1ccccc1Cl)NNS(=O)(=O)c1ccc(Cl)cc1 here?
The Potency was inconclusive: 5.01 µM [activator, single point].

With CCc1ccccc1N1C(=O)C(Cl)=C(N2CCOCC2)C1=O as the compound, how does the Potency read?
Its Potency is inconclusive: 3.16 µM [activator, single point].

With COc1cccc(NC(=O)Nc2ccc(CC(=O)O)cc2)c1 as the compound, how does the Potency read?
Its Potency is inconclusive: 8.91 µM [activator, single point].

For CCCCC(C(=O)O)C(C)CC(=O)Nc1nccs1 (stereo unspecified), which Potency is on record?
Its Potency is inconclusive: 5.01 µM [activator, single point].

With ON=C1c2ccccc2-c2ccccc21 as the compound, how does the Potency read?
Its Potency is inconclusive: 28.2 µM [activator, single point].

Which Potency does the source give for Cc1ccc(S(=O)(=O)Nc2c(NC3CCCCC3)c3ccccc3oc2=O)cc1 here?
Its Potency is inconclusive: 6.31 µM [activator, single point].

Which “activation” value does the source give for Cc1sc2nc(C(C)C)nc(SCC(=O)N3c4ccccc4CC3C)c2c1C (stereo unspecified) here?
The value was inactive: 9.22%.

For COc1cc(NC(=S)NCCC(c2ccccc2)c2ccccc2)c(OC)cc1Cl, which “activation” value is on record?
Its value is inactive: 20.7%.

Which Potency does the source give for COc1ccc(-c2cc3c(=O)n(CC(=O)NCCN4CCCC4)nc(C)n3n2)cc1 here?
Its Potency is inconclusive: 0.631 µM [activator, full curve, poor fit].

With O=C(c1cccc(S(=O)(=O)N2CCCC2)c1)N1CCN(S(=O)(=O)c2cccc(Cl)c2)CC1 as the compound, how does the Potency read?
Its Potency is inconclusive: 10 µM [activator, partial curve, poor fit].

Which Potency does the source give for CCCN1CCN(S(=O)(=O)c2ccc3c(c2)CC(C)N3C(=O)C2CC2)CC1 (stereo unspecified) here?
The Potency was inconclusive: 3.55 µM [activator, partial curve, poor fit].

With COc1ccc(NC(=O)c2ccco2)cc1NC(=O)c1cc2ccccc2o1 as the compound, how does the “activation” value read?
The value was inactive: -3.88%.

With CCn1ncc(Br)c1C(=O)Nc1sc2c(c1C(N)=O)CCC2 as the compound, how does the Potency read?
The Potency was inconclusive: 5.01 µM [activator, single point].
